From PubChem BioAssay AID588590 (National Center for Advancing Translational Sciences (NCATS), 2011)
Screen size: about 390,000 compounds; about 4,000 (1%) were called active. The inconclusive results got no clear call from the source; some entries with a clear call stand among them for comparison. The call rests on the fitted dose curve; in most records, active means well fitted inhibition curve with a large enough effect; inconclusive means small, poorly fitted or top-dose-only effect, or another doubt; inactive means no such curve, though single readings can be large or run the other way. Potencies of inconclusive entries are doubtful fits and often do not repeat.

By UniProt entry, the sequences of proteins in these tests, tags left out. Where a name states a change or a piece, a line headed by the entry shows the natural chain unless it says otherwise.
UniProt Q9UNA4: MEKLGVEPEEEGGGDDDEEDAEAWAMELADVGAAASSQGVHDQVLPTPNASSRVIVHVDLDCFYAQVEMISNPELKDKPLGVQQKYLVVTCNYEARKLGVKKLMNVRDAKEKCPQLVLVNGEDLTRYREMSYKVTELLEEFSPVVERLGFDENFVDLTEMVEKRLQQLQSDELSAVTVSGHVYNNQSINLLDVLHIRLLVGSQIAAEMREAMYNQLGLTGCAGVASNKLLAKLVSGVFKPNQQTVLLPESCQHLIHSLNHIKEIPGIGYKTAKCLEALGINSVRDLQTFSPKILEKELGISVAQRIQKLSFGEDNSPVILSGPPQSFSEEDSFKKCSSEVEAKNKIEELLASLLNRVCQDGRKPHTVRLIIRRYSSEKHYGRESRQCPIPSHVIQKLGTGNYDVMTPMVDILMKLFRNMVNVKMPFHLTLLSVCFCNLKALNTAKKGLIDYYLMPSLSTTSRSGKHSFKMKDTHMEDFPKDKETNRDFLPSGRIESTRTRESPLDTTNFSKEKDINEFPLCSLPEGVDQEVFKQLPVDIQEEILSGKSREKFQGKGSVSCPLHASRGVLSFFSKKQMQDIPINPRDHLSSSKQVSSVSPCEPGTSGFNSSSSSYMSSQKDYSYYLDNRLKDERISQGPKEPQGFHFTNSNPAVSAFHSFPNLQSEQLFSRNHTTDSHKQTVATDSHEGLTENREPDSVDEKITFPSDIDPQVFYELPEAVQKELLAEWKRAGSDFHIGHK

target: DNA polymerase iota (Homo sapiens) (UniProt Q9UNA4); experiment: qHTS for Inhibitors of Polymerase Iota; details: Pol iota fluorescent replication assay, 10 min; series mostly up to 115 µM
Procedure, shortened: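 Fluorescent replication assay read twice, at 0 min and 10 min after adding 50 nM (final) substrate. Enzyme (10 nM) and compounds were first incubated 15 min at room temperature; enzyme-free buffer wells were negative controls.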
Potency means the concentration at half of the fitted maximal effect.

Potency, inconclusive:
Cc1[nH]nc(N=CC2=C(O)CC(c3ccco3)CC2=O)c1-c1ccccc1 (centres undefined) 39.8 µM [inhibitor, single point]
Cc1occc1-c1nnc(SCC(=O)c2cc3ccccc3oc2=O)o1 25.1 µM [inhibitor, single point]
CCOc1ccc(NC(=O)Cn2c(C)ccc(C#N)c2=O)cc1 89.1 µM [inhibitor, single point]
CC(C)n1cnc2cc(NCc3ccco3)ccc21 15.8 µM [inhibitor, full curve]
CSc1ccc(CNC(=O)CCn2ccc3cc(S(=O)(=O)N4CCCC4)ccc32)cc1 7.94 µM [inhibitor, partial curve, poor fit]
COc1ccc(CC(=O)N(CCC2=CCCCC2)c2c(N)n(Cc3ccccc3)c(=O)[nH]c2=O)cc1OC 2.82 µM [inhibitor, partial curve, poor fit]
Cc1ccc2cc3cc(C(=O)N4CCN(C(=O)c5ccco5)CC4)sc3nc2c1 56.2 µM [inhibitor, partial curve, poor fit]
CC(NC(=O)COc1ccc(/C=N/NC(=O)C(=O)Nc2ccccc2Br)cc1)c1ccccc1 (centres undefined) 10 µM [inhibitor, partial curve, poor fit]
COc1cc(/C=N/NC(=O)c2cccnc2)ccc1OC(=O)c1ccc([N+](=O)[O-])cc1 79.4 µM [inhibitor, partial curve]
COc1cc(NC(=O)CSCc2cnn(-c3ccccc3)c2-n2cccc2)cc(OC)c1 25.1 µM [inhibitor, single point]
CC(C)(C)n1nnnc1CN(Cc1ccco1)Cc1cc2cc3c(cc2[nH]c1=O)OCO3 35.5 µM [inhibitor, single point]
CC(C)C[C@@H](CNCC(=O)[C@H](CC(=O)O)NC(=O)c1[nH]cnc1C(=O)N[C@H](CN)CC(C)C)NC(=O)c1nc[nH]c1C(=O)N[C@@H](C)C(=O)O 10 µM [inhibitor, full curve, poor fit]
CCOC(=O)C1=C(CN2CCN(c3ccccc3)CC2)NC(=O)NC1c1ccc(C)cc1 (centres undefined) 31.6 µM [inhibitor, partial curve, poor fit]
Cc1cc(C)n2nc(C(=O)Nc3ccn(Cc4ccccc4C)n3)cc2n1 3.16 µM [inhibitor, full curve, poor fit]
Cn1c(Cc2ccccc2)nnc1SCc1nc2ccccc2c(=O)[nH]1 89.1 µM [inhibitor, single point]
COc1ccc(C(=O)Nc2cc(C(F)(F)F)ccc2N2CCN(c3ccccc3)CC2)cc1OC 5.62 µM [inhibitor, full curve]
O=S(=O)(c1ccccc1)N1CCN(c2ncnc3scc(-c4ccccc4)c23)CC1 79.4 µM [inhibitor, partial curve]
CN(CCc1ccccc1)C(=O)c1ccc(NC(=O)Cc2ccc(NC(=O)C3CCN(C(=O)C4CCCC4)CC3)cc2)cc1 79.4 µM [inhibitor, single point]
Cn1c(SCC(=O)c2ccc(-c3ccccc3)cc2)nnc1-c1ccco1 28.2 µM [inhibitor, full curve, poor fit]
CC(C)Cc1nnc(NC(=O)CN2C(=O)NC3(CCCCC3)C2=O)s1 79.4 µM [inhibitor, single point]
Cn1c(=O)c2[nH]c(=O)cnc2n(C)c1=S 28.2 µM [inhibitor, partial curve]
CCOc1ccc(C(=O)OCC(=O)NCc2ccco2)cc1OCC 7.94 µM [inhibitor, full curve, poor fit]
COC(=O)CSc1nc2c(cnn2-c2ccc(Cl)cc2)c(=O)[nH]1 10 µM [inhibitor, partial curve, poor fit]
COc1cccc(C2CC(C(F)(F)F)n3ncc(C(=O)O)c3N2)c1 (centres undefined) 39.8 µM [inhibitor, single point]
O=C(CCCl)Nc1ccc(S(=O)(=O)NCc2ccco2)cc1 22.4 µM [inhibitor, full curve]
CCOC(=O)c1nn(-c2ccccc2C)c(=O)c2c(N)scc12 35.5 µM [inhibitor, partial curve, poor fit]
O=C(NCc1cccnc1)c1nc(-c2ccccc2)n(-c2ccccc2)n1 89.1 µM [inhibitor, single point]
CCOc1ccc(CCNC(=O)c2nc(-c3cccc(F)c3)n3c2CCCCC3)cc1OCC 100 µM [inhibitor, partial curve, poor fit]
COc1ccc(CNCC(O)COCc2cccs2)cc1 (centres undefined) 12.6 µM [inhibitor, partial curve]
COc1ccc2oc(C(=O)Nc3ccc(N4CCOCC4)cc3)c(C)c2c1 15.8 µM [inhibitor, full curve, poor fit]
CC(C)(C)NC(=O)C[C@H]1C[C@H](C(=O)N2CCCCC2)[C@@]2(CCc3ccccc3)c3[nH]c4cc(-c5ccco5)ccc4c3CCN2C1=O 17.8 µM [inhibitor, single point]

Three compounds from above, arranged by heavy-atom count, smallest number first.
Potency, inconclusive:
CCOc1ccc(C(=O)OCC(=O)NCc2ccco2)cc1OCC 7.94 µM [inhibitor, full curve, poor fit]
Cc1ccc2cc3cc(C(=O)N4CCN(C(=O)c5ccco5)CC4)sc3nc2c1 56.2 µM [inhibitor, partial curve, poor fit]
CCOC(=O)C1=C(CN2CCN(c3ccccc3)CC2)NC(=O)NC1c1ccc(C)cc1 (centres undefined) 31.6 µM [inhibitor, partial curve, poor fit]

Next part:

Potency, inactive:
O=C(CSc1ncn[nH]1)Nc1ccc(S(=O)(=O)Nc2ncccn2)cc1
Cc1ccc(C)c(NC(=O)CSc2cn(CC(=O)N3CCCC3)c3ccccc23)c1
CCc1nnc2c3ccccc3nc(N3CCN(c4ccc(C)cc4C)CC3)n12
NC(=O)c1ccccc1NC(=O)/C=C/c1ccc(Cl)cc1
CCN(CC)CCC(c1ccc2c(c1)OCO2)c1c(OC)cc(OC)c2ccc(=O)oc12 (centres undefined)
CCOc1ccc(NC(=O)CSc2nnc3c(n2)[nH]c2ccc(S(=O)(=O)N(C)C)cc23)cc1
CC1CCCCC12NC(=O)N(CC(=O)Nc1ccc(OC(F)F)cc1)C2=O (centres undefined)
COC(=O)/C=C/c1ccc2c(c1)S(=O)(=O)N(Cc1ccc(OC)cc1)[C@H]2CC(=O)OC
